Data as given in publication PMC11481398.
These are yes or no findings as the source states them, for the method shown. In cells and extracts the contact can be indirect. A result given as binding can be weak or reduced; the word gives no strength.

The chains behind the UniProt entries cited, without tags or fusion partners. Where a name states a change or a piece, a line headed by the entry shows the natural chain unless it says otherwise.
UniProt Q00534: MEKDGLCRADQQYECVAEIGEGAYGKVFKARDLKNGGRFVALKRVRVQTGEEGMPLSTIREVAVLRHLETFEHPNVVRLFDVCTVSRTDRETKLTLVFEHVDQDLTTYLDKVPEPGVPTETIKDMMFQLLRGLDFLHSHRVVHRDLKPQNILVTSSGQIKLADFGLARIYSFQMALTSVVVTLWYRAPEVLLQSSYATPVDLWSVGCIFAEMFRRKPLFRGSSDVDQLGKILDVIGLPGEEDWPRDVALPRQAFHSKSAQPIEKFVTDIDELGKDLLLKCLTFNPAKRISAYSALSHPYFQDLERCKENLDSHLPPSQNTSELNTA
UniProt Q13619: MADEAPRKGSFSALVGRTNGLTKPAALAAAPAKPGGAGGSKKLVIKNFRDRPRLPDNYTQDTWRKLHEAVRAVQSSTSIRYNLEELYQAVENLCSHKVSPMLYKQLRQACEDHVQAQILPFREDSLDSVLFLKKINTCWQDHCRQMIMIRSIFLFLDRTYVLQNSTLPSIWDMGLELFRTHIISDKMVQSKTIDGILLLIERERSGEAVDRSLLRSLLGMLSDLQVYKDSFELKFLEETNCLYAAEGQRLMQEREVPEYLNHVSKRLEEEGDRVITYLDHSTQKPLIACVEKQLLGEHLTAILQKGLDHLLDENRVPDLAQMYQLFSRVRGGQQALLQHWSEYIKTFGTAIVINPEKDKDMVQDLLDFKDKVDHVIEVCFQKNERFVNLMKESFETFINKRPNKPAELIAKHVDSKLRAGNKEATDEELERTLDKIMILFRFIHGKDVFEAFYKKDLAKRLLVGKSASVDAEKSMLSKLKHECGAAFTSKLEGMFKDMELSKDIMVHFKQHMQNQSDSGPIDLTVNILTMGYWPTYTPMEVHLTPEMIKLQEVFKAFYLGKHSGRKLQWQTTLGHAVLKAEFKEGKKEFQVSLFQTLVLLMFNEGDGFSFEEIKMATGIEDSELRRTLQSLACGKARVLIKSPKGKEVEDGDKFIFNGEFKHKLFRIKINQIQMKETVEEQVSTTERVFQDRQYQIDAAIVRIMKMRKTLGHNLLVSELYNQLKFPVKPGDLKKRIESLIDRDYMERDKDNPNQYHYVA

Target: CDK6 xLIR domain mutant (96-101 amino acid mutation) (UniProt Q00534)
Experiment: co-IP; H69AR-xLIRmut cells (single clone after transfection with the CDK6 xLIR mutation plasmid) treated with PD (0.5 µM) and LEE (0.8 µM); western blot

- binding: binds
Substance: CUL4A (from UniProt Q13619 1-759)
